Experimental data: patent US8759326B2, “Drug combinations containing PDE4 inhibitors and NSAIDs” (Boehringer Ingelheim International GmbH, priority 2009, dated 2014)

Legend:
male Wistar rats [1] = test: Experiment 3: weight loss, leukocytosis and neutrophilia in rats, roflumilast with or without SC-560 or lumiracoxib; type: in vivo, rat; settings: 2 mg/kg p.o. at 0800 and 1700, four days
male Wistar rats [2] = test: Experiment 4: diarrhoea and mesentery histopathology in rats, roflumilast with or without SC-560 or lumiracoxib; type: in vivo, rat
[3] = animals affected out of animals examined, p.o. four days, roflumilast 10 mg/kg at 1300, SC-560 or lumiracoxib 2 mg/kg at 0800 and 1700, 95 hours after t0

COc1ccc(-n2nc(C(F)(F)F)cc2-c2ccc(Cl)cc2)cc1 [SC-560]
parameters measured after the administration of the NSAID alone, compared with control (male Wistar rats [1]): very similar to the control groups | protective effect on the histopathological findings (multifocal perivascular mononuclear infiltration or proliferation of fibroblasts in the mesentery) (male Wistar rats [2]; SC-560 2 mg/kg p.o. at 0800 and 1700 co-administered with roflumilast 10 mg/kg, four days): only a very slight protective effect | Mesentery: Proliferation of fibroblasts (male Wistar rats [2]; [3]): 0/5 | Mesentery: multifocal perivascular mononuclear infiltration (=inflammation parameter) (male Wistar rats [2]; [3]): 0/5
